Source: the supplement of paper PMC7125110
± gives the standard error. Many entries were measured with a wide error.

B1: glmS ribozyme (parent)
chain: AUAAAAGCGCCAGAACUACAGAAAUGUAGUUGACGAGGAGGAGGUUUAUCGAAUUUUCGGCGGAUGCCUCCAAA

Variants of: B1
Assay: KM; higher = weaker cofactor use; RNA array
Conditions: with glucosamine-6-phosphate
How it was run: (§1)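 Using a hybridised Cy3 probe at 37 °C, barcoded ribozyme variants transcribed in situ by E. coli RNA polymerase on sequenced MiSeq chips were monitored across tiles imaged over ~14 h. The flow contained glucosamine-6-phosphate from 40 μM to 10 mM in HEPES/KCl/Mg(OAc)2 buffer. Signals were normalised to baseline and to non-cleaving reference variants before per-tile medians were fit to one- or two-exponential decays to yield kobs. Weighted Michaelis–Menten fits across concentrations gave kcat and KM.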
C11U A53U gave a KM of 2120 ± 1200 µM.
For A14C U30C, the KM was 151 ± 50 µM.
For C10U U30C G59A G60A C70U, the KM was 165 ± 84 µM.
A12U U54C was tested, and the KM was 422 ± 230 µM.
For A6U G29A, the KM was 532 ± 350 µM.
Work on A14C U56G yielded a KM of 126 ± 96 µM.
C11A G32U showed a KM of 15200 ± 12000 µM.
G29U A48C C50U was tested, and the KM was 58.8 ± 56 µM.
With C16U U57C the KM was 4890 ± 3200 µM.
G9U A33U was tested, and the KM was 35.8 ± 24 µM.
With G29A U45A the KM was 3200 ± 1300 µM.
Work on G29C A36C G43U yielded a KM of 37.1 ± 34 µM.
For A6U U46C, the KM was 2710 ± 290 µM.
G29U A39C showed a KM of 2170 ± 670 µM.
A15G U54C showed a KM of 608 ± 330 µM.
G7U U55A showed a KM of 29.5 ± 21 µM.
A12U A42C was tested, and the KM was 869 ± 540 µM.
A14U C70G showed a KM of 338 ± 170 µM.
For A15G C70U, the KM was 169 ± 140 µM.
G13U G40U was tested, and the KM was 568 ± 390 µM.
G29U G66A gave a KM of 1710 ± 700 µM.
C16G U46G showed a KM of 1740 ± 950 µM.
C16U U30C gave a KM of 269 ± 240 µM.
In the case of A14C U47G, the KM is reported as 2500 ± 550 µM.
In the case of C11A C67U, the KM is reported as 217 ± 130 µM.
In the case of A15G U65C, the KM is reported as 1640 ± 850 µM.
C16U A42U A64G was tested, and the KM was 4100 ± 2100 µM.
With G29C U47G the KM was 1800 ± 1100 µM.
For A14U A52U, the KM was 2930 ± 110 µM.
C16G A52G gave a KM of 3820 ± 2200 µM.
Variant A12G G41C has a KM of 11300 ± 2800 µM.
In the case of C11U G29U, the KM is reported as 3980 ± 2700 µM.
U30A U46C was tested, and the KM was 1730 ± 750 µM.
U30A U46A gave a KM of 1190 ± 650 µM.
U30A U46G gave a KM of 1470 ± 960 µM.
In the case of G29U A53U, the KM is reported as 1600 ± 360 µM.
G29U G37C was tested, and the KM was 145 ± 140 µM.
C16A A48U was tested, and the KM was 163 ± 44 µM.
Work on G13U C16G yielded a KM of 5170 ± 950 µM.
In the case of G13U C16U, the KM is reported as 3430 ± 1000 µM.
G29U A52G showed a KM of 3340 ± 1200 µM.
Variant G29A U54A has a KM of 3150 ± 1100 µM.
A14C G40A gave a KM of 1850 ± 1300 µM.
With G29U G40C the KM was 1010 ± 620 µM.
In the case of C16G A64C, the KM is reported as 9060 ± 1500 µM.
C8A G35U gave a KM of 155 ± 140 µM.
In the case of C11G C50G, the KM is reported as 105 ± 59 µM.
C10U C58U was tested, and the KM was 1.81 ± 1.6 µM.
Variant G29U U54A U65A has a KM of 821 ± 460 µM.
In the case of A15G U69A, the KM is reported as 86.2 ± 52 µM.
Work on C10A G32A yielded a KM of 437 ± 230 µM.
With G13C U55G the KM was 2560 ± 1500 µM.
Work on C8A C70A yielded a KM of 559 ± 430 µM.
C16G G41A showed a KM of 1460 ± 1000 µM.
Variant G13A U56G has a KM of 3800 ± 1300 µM.
In the case of G13A U56C, the KM is reported as 10100 ± 300 µM.
A15C G32C showed a KM of 3300 ± 240 µM.
Work on C10G C61G yielded a KM of 86.8 ± 66 µM.
With U30A U55G the KM was 2190 ± 1200 µM.
A14U G41U showed a KM of 1010 ± 220 µM.
A14U G41A gave a KM of 1930 ± 1000 µM.
A14C U45G showed a KM of 3410 ± 600 µM.
A14C U45A gave a KM of 1770 ± 900 µM.
Work on A15C C67U yielded a KM of 881 ± 330 µM.
A15U G44U U47G C67G was tested, and the KM was 967 ± 700 µM.
With A15U A52U the KM was 1610 ± 370 µM.
Work on C16A U46C yielded a KM of 1730 ± 1300 µM.
G13A U49C was tested, and the KM was 177 ± 160 µM.
G9U U47C was tested, and the KM was 15.2 ± 15 µM.
For A15U A48U, the KM was 17300 ± 8400 µM.

Variants of: B1
Assay: self-cleavage kobs at 40 uM GlcN6P; higher = faster cleavage; RNA array
Conditions: with glucosamine-6-phosphate
How it was run: as §1
In the case of C11U A53U, the “self-cleavage kobs at 40 uM GlcN6P” value is reported as 1.85e-05 ± 1.2e-05 s⁻¹.
A14U C70G was tested, and the “self-cleavage kobs at 40 uM GlcN6P” value was 1.02e-05 ± 8e-06 s⁻¹.
With G29C U47G the “self-cleavage kobs at 40 uM GlcN6P” value was 1.48e-05 ± 1.5e-05 s⁻¹.
C11U G29U was tested, and the “self-cleavage kobs at 40 uM GlcN6P” value was 2.48e-05 ± 1.3e-05 s⁻¹.
G29U G40C was tested, and the “self-cleavage kobs at 40 uM GlcN6P” value was 3.88e-05 ± 2.6e-05 s⁻¹.
A14U G41U was tested, and the “self-cleavage kobs at 40 uM GlcN6P” value was 1.4e-05 ± 8.4e-06 s⁻¹.
For A14C U45G, the “self-cleavage kobs at 40 uM GlcN6P” value was 1.68e-05 ± 1.2e-05 s⁻¹.
A15U G44U U47G C67G was tested, and the “self-cleavage kobs at 40 uM GlcN6P” value was 3.45e-05 ± 2.5e-05 s⁻¹.

Variants of: B1
Assay: self-cleavage kobs at 2500 uM GlcN6P; higher = faster cleavage; RNA array
Conditions: with glucosamine-6-phosphate
How it was run: as §1
In the case of A14C U30C, the “self-cleavage kobs at 2500 uM GlcN6P” value is reported as 1.48e-05 ± 1.4e-05 s⁻¹.
For A15G U54C, the “self-cleavage kobs at 2500 uM GlcN6P” value was 0.00524 ± 0.0048 s⁻¹.
For U30A U46C, the “self-cleavage kobs at 2500 uM GlcN6P” value was 0.000158 ± 0.0001 s⁻¹.
With A15U A48U the “self-cleavage kobs at 2500 uM GlcN6P” value was 1.63e-05 ± 1.1e-05 s⁻¹.

Variants of: B1
Assay: self-cleavage kobs at 10000 uM GlcN6P; higher = faster cleavage; RNA array
Conditions: with glucosamine-6-phosphate
How it was run: as §1
A14C U30C was tested, and the “self-cleavage kobs at 10000 uM GlcN6P” value was 1.49e-05 ± 1.2e-05 s⁻¹.
With C11A G32U the “self-cleavage kobs at 10000 uM GlcN6P” value was 2.07e-05 ± 1.1e-05 s⁻¹.
For A6U U46C, the “self-cleavage kobs at 10000 uM GlcN6P” value was 1.89e-05 ± 1.1e-05 s⁻¹.
In the case of A14U C70G, the “self-cleavage kobs at 10000 uM GlcN6P” value is reported as 0.00268 ± 0.0014 s⁻¹.

Variants of: B1
Assay: self-cleavage kobs at 160 uM GlcN6P; higher = faster cleavage; RNA array
Conditions: with glucosamine-6-phosphate
How it was run: as §1
For G29C U47G, the “self-cleavage kobs at 160 uM GlcN6P” value was 3.21e-05 ± 2e-05 s⁻¹.
C16G A52G was tested, and the “self-cleavage kobs at 160 uM GlcN6P” value was 3.14e-05 ± 1.9e-05 s⁻¹.
For U30A U46A, the “self-cleavage kobs at 160 uM GlcN6P” value was 3.68e-05 ± 3.3e-05 s⁻¹.
In the case of G13U C16G, the “self-cleavage kobs at 160 uM GlcN6P” value is reported as 2.08e-05 ± 1.7e-05 s⁻¹.
G29U A52G was tested, and the “self-cleavage kobs at 160 uM GlcN6P” value was 2.24e-05 ± 2.2e-05 s⁻¹.
In the case of G29U G40C, the “self-cleavage kobs at 160 uM GlcN6P” value is reported as 3.91e-05 ± 2.2e-05 s⁻¹.
A14U G41A was tested, and the “self-cleavage kobs at 160 uM GlcN6P” value was 3.14e-05 ± 2.4e-05 s⁻¹.

Variants of: B1
Assay: self-cleavage kobs at 640 uM GlcN6P; higher = faster cleavage; RNA array
Conditions: with glucosamine-6-phosphate
How it was run: as §1
U30A U46G was tested, and the “self-cleavage kobs at 640 uM GlcN6P” value was 0.000154 ± 8e-05 s⁻¹.
